# Taken from: PubChem BioAssay AID1259254 (NCATS, 2017)
# Assay: 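Genome-wide screen for genes that prevent DNA re-replication in cancer cells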 (primary screen)
# System: human HCT116 colorectal cancer cells
# Knock-down reagent: single siRNA against human genes
# Time to read-out: 3 days
# Read-out: 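Imaged Hoechst DNA stain sorts each cell into a cycle phase by DNA amount; per plate, G2 fraction set to 0% for non-targeting and 100% for GMNN siRNA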
# Reading the numbers: G2 robust z-score and G2 cells, % of GMNN control: higher = more G2 cells, more excess DNA replication; raw share of cells in G2: higher = larger share of cells with G2 DNA content
# Active means: 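Active siRNAs have a G2 robust z of 5 or more median absolute deviations over the median, which in these data means about 38% or higher of GMNN control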
# The deposit covers about 59,000 reagents; shown is a part drawn at random. About 1,550 of all reagents (2.6%) count as active. 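G2 share is only a proxy for re-replication; each gene was hit by three separate siRNAs, and active genes were retested.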 The raw values are shown without normalisation. A number with no mark means an inactive call. Reagents against one gene are numbered here. Reagent sequences are not shown. Not given: the amount of reagent.
Target gene,siRNA no.,G2 robust z-score,"G2 cells, % of GMNN control",raw share of cells in G2 (%)
GTF2H4 (general transcription factor IIH subunit 4),1,1.99,17,10.2
GTF2H4 (general transcription factor IIH subunit 4),2,2.38,19.7,14.1
GTF2H4 (general transcription factor IIH subunit 4),3,2.53,20.8,10.7
OR10T2 (olfactory receptor family 10 subfamily T member 2),1,-0.777,-2.5,3.23
OR10T2 (olfactory receptor family 10 subfamily T member 2),2,-0.627,-1.45,2.64
OR10T2 (olfactory receptor family 10 subfamily T member 2),3,0.851,8.96,5.83
CCT8 (chaperonin containing TCP1 subunit 8),1,0.418,5.91,5.49
CCT8 (chaperonin containing TCP1 subunit 8),2,3.97,30.9,19.7
CCT8 (chaperonin containing TCP1 subunit 8),3,1.09,10.6,7.78
KIF17 (kinesin family member 17),1,-0.117,2.14,6.53
KIF17 (kinesin family member 17),2,-0.246,1.24,4.78
KIF17 (kinesin family member 17),3,-0.408,0.0968,4.26
ZBTB5 (zinc finger and BTB domain containing 5),1,-0.965,-3.82,2.26
ZBTB5 (zinc finger and BTB domain containing 5),2,-1.03,-4.27,4.09
ZBTB5 (zinc finger and BTB domain containing 5),3,-0.608,-1.31,2.79
XPNPEP3 (X-prolyl aminopeptidase 3),1,-0.0735,2.45,6.63
XPNPEP3 (X-prolyl aminopeptidase 3),2,0.525,6.66,6.67
XPNPEP3 (X-prolyl aminopeptidase 3),3,0.169,4.16,5.81
PPP1R12B (protein phosphatase 1 regulatory subunit 12B),1,0.555,6.87,7.03
PPP1R12B (protein phosphatase 1 regulatory subunit 12B),2,-0.0609,2.54,5.07
PPP1R12B (protein phosphatase 1 regulatory subunit 12B),3,1.26,11.8,7.06
SAR1A (secretion associated Ras related GTPase 1A),1,-1.05,-4.42,4.49
SAR1A (secretion associated Ras related GTPase 1A),2,2.6,21.2,12
SAR1A (secretion associated Ras related GTPase 1A),3,-0.214,1.46,4.94
PTBP2 (polypyrimidine tract binding protein 2),1,-1.3,-6.18,1.98
PTBP2 (polypyrimidine tract binding protein 2),2,-0.577,-1.09,3.96
PTBP2 (polypyrimidine tract binding protein 2),3,-0.94,-3.65,4.14
SLC25A14,1,-0.792,-2.6,3.77
SLC25A14,2,1.55,13.8,10.1
SLC25A14,3,0.194,4.33,6.5
AK2 (adenylate kinase 2),1,-1.09,-4.74,4.04
AK2 (adenylate kinase 2),2,-0.21,1.49,5.91
AK2 (adenylate kinase 2),3,0.651,7.54,6.68
ZFP36 (ZFP36 zinc finger CCCH-type),1,1.18,11.3,8.46
ZFP36 (ZFP36 zinc finger CCCH-type),2,8.05 (active),59.6,30.8
ZFP36 (ZFP36 zinc finger CCCH-type),3,-0.201,1.55,4.99
SMS (spermine synthase),1,-0.223,1.4,6.15
SMS (spermine synthase),2,-0.605,-1.29,4.11
SMS (spermine synthase),3,-0.637,-1.52,3.46
MEIG1 (meiosis/spermiogenesis associated 1),1,0.606,7.23,6.39
MEIG1 (meiosis/spermiogenesis associated 1),2,-0.118,2.14,4.04
MEIG1 (meiosis/spermiogenesis associated 1),3,1.19,11.3,6.44
SLC25A5,1,1.75,15.2,9.67
SLC25A5,2,-0.71,-2.03,4.03
SLC25A5,3,1.76,15.3,10.5
H3C7 (H3 clustered histone 7),1,-0.863,-3.11,3.75
H3C7 (H3 clustered histone 7),2,0.127,3.86,5.43
H3C7 (H3 clustered histone 7),3,2.32,19.3,10.2
